According to the supplement of paper PMC6078165:

Tested on: Hs578T
Assay: relative JC-1 red fluorescence (viability) vs pre-drug, coculture with fibroblast (fraction); higher = more viable cancer cells
Protocol: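 JC-1 labelled TNBC cells cocultured 1:1 (1,500 cells each) with CellTrace Violet stained primary or stromal fibroblasts in 384-well plates in FluoroBrite medium, treated with one of 42 anticancer drugs at 0.1, 1, 10 or 100 uM. JC-1 red fluorescence (mitochondrial integrity in cancer cells only) was read by plate reader every 8 h for 72 h. Values are normalised to each well's pre-drug value. The stock of one drug was tenfold lower, so its dose labels may be too high.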

CC(C)(C#N)c1cc(Cn2cncn2)cc(C(C)(C)C#N)c1 [Anastrozole]
relative JC-1 red fluorescence
Settings | 8 h | 16 h | 24 h | 32 h | 40 h | 48 h | 56 h | 64 h | 72 h
10 µM | 0.9043 | 0.802 | 0.75 | 0.718 | 0.657 | 0.615 | 0.592 | 0.551 | 0.535
100 µM | 0.905 | 0.8117 | 0.777 | 0.745 | 0.695 | 0.656 | 0.643 | 0.612 | 0.6

relative JC-1 red fluorescence
Settings | 8 h | 16 h | 24 h | 32 h | 40 h | 48 h | 56 h | 64 h | 72 h
10 µM, coculture fibroblast: C12385 | 0.8562 | 0.727 | 0.6802 | 0.5966 | 0.5258 | 0.4843 | 0.4556 | 0.434 | 0.415
10 µM, coculture fibroblast: H6013 | 0.867 | 0.768 | 0.727 | 0.706 | 0.679 | 0.678 | 0.66 | 0.659 | 0.633
10 µM, coculture fibroblast: H6019 | 0.7821 | 0.691 | 0.64 | 0.552 | 0.506 | 0.472 | 0.437 | 0.41 | 0.384
10 µM, coculture fibroblast: H6076 | 0.928 | 0.861 | 0.787 | 0.756 | 0.694 | 0.679 | 0.634 | 0.625 | 0.617
10 µM, coculture fibroblast: H6231 | 0.9457 | 0.858 | 0.787 | 0.725 | 0.664 | 0.621 | 0.569 | 0.542 | 0.517
10 µM, coculture fibroblast: HADF | 0.916 | 0.796 | 0.729 | 0.675 | 0.625 | 0.597 | 0.558 | 0.539 | 0.502
10 µM, coculture fibroblast: HCFa | 0.8431 | 0.732 | 0.661 | 0.605 | 0.532 | 0.506 | 0.467 | 0.456 | 0.428
10 µM, coculture fibroblast: HCPF | 0.909 | 0.829 | 0.791 | 0.764 | 0.705 | 0.687 | 0.652 | 0.612 | 0.586
10 µM, coculture fibroblast: HHSteC | 0.888 | 0.769 | 0.729 | 0.684 | 0.637 | 0.606 | 0.576 | 0.5557 | 0.5257
10 µM, coculture fibroblast: HMF | 0.8994 | 0.841 | 0.7981 | 0.772 | 0.719 | 0.687 | 0.655 | 0.633 | 0.607
10 µM, coculture fibroblast: HPFa | 0.932 | 0.842 | 0.768 | 0.699 | 0.641 | 0.601 | 0.558 | 0.529 | 0.491
10 µM, coculture fibroblast: HUF | 0.8899 | 0.748 | 0.725 | 0.628 | 0.562 | 0.526 | 0.484 | 0.468 | 0.454
10 µM, coculture fibroblast: Hs27A | 0.907 | 0.85 | 0.771 | 0.714 | 0.651 | 0.63 | 0.592 | 0.568 | 0.522
10 µM, coculture fibroblast: Hs343T | 0.932 | 0.832 | 0.758 | 0.73 | 0.656 | 0.624 | 0.567 | 0.534 | 0.504
10 µM, coculture fibroblast: WS1 | 0.812 | 0.704 | 0.628 | 0.539 | 0.47 | 0.436 | 0.397 | 0.373 | 0.353
100 µM, coculture fibroblast: C12385 | 0.842 | 0.76571 | 0.718 | 0.65 | 0.603 | 0.575 | 0.548 | 0.531 | 0.522
100 µM, coculture fibroblast: H6013 | 0.9085 | 0.848 | 0.82 | 0.798 | 0.763 | 0.743 | 0.72 | 0.704 | 0.667
100 µM, coculture fibroblast: H6019 | 0.806 | 0.733 | 0.702 | 0.617 | 0.575 | 0.541 | 0.508 | 0.476 | 0.447
100 µM, coculture fibroblast: H6076 | 0.914 | 0.8578 | 0.831 | 0.819 | 0.797 | 0.794 | 0.774 | 0.766 | 0.764
100 µM, coculture fibroblast: H6231 | 0.894 | 0.835 | 0.802 | 0.769 | 0.719 | 0.703 | 0.668 | 0.644 | 0.633
100 µM, coculture fibroblast: HADF | 0.929 | 0.9 | 0.876 | 0.838 | 0.817 | 0.795 | 0.753 | 0.743 | 0.7
100 µM, coculture fibroblast: HCFa | 0.881 | 0.866 | 0.848 | 0.817 | 0.7586 | 0.749 | 0.717 | 0.709 | 0.681
100 µM, coculture fibroblast: HCPF | 0.9306 | 0.862 | 0.81 | 0.7704 | 0.7153 | 0.6903 | 0.6716 | 0.6232 | 0.6
100 µM, coculture fibroblast: HHSteC | 0.903 | 0.8301 | 0.7814 | 0.738 | 0.684 | 0.653 | 0.614 | 0.592 | 0.548
100 µM, coculture fibroblast: HMF | 0.92 | 0.854 | 0.797 | 0.773 | 0.723 | 0.7 | 0.669 | 0.64 | 0.615
100 µM, coculture fibroblast: HPFa | 0.9288 | 0.833 | 0.777 | 0.738 | 0.704 | 0.664 | 0.616 | 0.585 | 0.538
100 µM, coculture fibroblast: HUF | 0.8599 | 0.774 | 0.7452 | 0.66281 | 0.608 | 0.573 | 0.534 | 0.507 | 0.492
100 µM, coculture fibroblast: Hs27A | 0.906 | 0.866 | 0.837 | 0.822 | 0.777 | 0.774 | 0.749 | 0.754 | 0.712
100 µM, coculture fibroblast: Hs343T | 0.94 | 0.849 | 0.824 | 0.808 | 0.745 | 0.722 | 0.692 | 0.665 | 0.644
100 µM, coculture fibroblast: WS1 | 0.8193 | 0.75 | 0.69 | 0.611 | 0.559 | 0.539 | 0.513 | 0.493 | 0.478

Values are relative to the signal before dosing, not to a vehicle control; the signal also falls without drug.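 Fibroblast labels name human fibroblasts: mostly primary ones from tissues such as uterus (C12385, HUF), lung (H6013), bone (Hs27A), adrenal (HADF) and skin (WS1), plus mammary HMF and breast cancer-associated Hs343T. The cancer cells are basal-like or mesenchymal-like triple-negative breast cancer lines. The paper calls a changed response a hit when it shifts by more than 3x the replicate standard deviation. The tissue of the other fibroblasts is not given here.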
